In the supplement of paper PMC6411743:
± gives the standard deviation of the averaged measurements. Only a part is listed here, and it is no random draw. Small differences around the control level are noise.

Chains of the proteins cited; added tags and fusions are not shown. Lines headed by an entry give the natural chain unless they say otherwise; changes in a name come on top.
UniProt Q96I25: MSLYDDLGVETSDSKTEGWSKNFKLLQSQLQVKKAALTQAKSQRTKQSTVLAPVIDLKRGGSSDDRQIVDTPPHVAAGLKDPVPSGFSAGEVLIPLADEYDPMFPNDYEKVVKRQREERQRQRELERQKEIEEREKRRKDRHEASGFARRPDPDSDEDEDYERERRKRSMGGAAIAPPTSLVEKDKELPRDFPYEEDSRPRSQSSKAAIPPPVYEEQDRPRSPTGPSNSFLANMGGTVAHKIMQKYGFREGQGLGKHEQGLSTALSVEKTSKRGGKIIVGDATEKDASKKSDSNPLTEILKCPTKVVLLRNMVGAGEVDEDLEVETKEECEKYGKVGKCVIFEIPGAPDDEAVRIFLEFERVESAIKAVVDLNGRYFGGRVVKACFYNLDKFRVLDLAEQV
UniProt Q96ES7: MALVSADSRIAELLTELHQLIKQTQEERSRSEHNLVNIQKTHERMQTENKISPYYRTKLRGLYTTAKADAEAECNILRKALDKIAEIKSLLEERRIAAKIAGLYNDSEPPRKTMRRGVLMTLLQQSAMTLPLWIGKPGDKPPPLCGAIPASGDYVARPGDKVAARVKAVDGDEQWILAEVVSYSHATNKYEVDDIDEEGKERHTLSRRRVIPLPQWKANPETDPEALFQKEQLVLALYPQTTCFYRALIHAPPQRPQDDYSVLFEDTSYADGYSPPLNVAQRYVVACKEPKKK
UniProt Q96QE3: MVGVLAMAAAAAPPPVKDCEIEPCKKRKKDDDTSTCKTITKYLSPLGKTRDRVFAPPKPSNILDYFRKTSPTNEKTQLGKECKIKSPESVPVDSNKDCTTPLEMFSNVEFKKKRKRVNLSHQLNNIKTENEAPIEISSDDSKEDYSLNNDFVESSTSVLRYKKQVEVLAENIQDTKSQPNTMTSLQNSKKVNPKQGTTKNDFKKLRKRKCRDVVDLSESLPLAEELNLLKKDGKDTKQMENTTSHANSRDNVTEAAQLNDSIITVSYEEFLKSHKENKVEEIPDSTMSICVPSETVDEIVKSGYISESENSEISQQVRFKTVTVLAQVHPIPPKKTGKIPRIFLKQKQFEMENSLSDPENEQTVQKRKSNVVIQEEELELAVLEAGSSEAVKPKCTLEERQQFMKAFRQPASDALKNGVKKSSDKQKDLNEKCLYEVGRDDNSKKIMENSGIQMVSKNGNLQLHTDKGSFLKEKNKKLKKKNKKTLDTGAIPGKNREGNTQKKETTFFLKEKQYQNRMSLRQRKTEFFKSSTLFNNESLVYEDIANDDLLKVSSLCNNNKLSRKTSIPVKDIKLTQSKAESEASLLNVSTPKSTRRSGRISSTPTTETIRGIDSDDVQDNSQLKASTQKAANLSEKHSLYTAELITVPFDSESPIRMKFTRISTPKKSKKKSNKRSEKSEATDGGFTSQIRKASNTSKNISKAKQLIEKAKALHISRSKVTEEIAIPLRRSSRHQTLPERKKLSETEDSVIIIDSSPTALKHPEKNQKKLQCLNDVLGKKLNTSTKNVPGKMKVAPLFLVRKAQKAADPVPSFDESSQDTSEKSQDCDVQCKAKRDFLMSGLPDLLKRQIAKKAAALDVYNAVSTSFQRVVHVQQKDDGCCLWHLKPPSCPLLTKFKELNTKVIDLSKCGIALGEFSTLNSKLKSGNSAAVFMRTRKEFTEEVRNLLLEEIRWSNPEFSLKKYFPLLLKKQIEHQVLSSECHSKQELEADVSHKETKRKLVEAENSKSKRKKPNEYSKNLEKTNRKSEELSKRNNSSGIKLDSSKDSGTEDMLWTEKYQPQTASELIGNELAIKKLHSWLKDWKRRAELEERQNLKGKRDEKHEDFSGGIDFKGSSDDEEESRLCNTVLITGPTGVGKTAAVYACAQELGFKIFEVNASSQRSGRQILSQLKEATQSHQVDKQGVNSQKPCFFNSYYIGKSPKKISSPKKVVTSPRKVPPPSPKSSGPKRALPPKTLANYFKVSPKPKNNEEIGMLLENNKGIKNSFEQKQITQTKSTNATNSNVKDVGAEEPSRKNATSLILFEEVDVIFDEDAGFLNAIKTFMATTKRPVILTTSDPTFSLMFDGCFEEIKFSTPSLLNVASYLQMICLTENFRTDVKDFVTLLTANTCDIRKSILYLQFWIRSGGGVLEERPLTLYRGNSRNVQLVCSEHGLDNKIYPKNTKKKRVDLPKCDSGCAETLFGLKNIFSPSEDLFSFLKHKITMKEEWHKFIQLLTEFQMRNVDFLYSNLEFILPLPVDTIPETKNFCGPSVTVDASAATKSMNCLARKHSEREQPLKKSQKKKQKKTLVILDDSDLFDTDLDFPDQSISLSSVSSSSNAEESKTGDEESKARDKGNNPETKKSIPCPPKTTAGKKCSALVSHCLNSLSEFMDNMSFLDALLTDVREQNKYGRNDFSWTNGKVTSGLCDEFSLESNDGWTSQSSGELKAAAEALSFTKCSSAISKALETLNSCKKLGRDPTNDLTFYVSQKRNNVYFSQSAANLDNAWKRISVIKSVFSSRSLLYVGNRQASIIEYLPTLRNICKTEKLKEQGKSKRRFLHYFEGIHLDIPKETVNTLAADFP
UniProt Q96HC4: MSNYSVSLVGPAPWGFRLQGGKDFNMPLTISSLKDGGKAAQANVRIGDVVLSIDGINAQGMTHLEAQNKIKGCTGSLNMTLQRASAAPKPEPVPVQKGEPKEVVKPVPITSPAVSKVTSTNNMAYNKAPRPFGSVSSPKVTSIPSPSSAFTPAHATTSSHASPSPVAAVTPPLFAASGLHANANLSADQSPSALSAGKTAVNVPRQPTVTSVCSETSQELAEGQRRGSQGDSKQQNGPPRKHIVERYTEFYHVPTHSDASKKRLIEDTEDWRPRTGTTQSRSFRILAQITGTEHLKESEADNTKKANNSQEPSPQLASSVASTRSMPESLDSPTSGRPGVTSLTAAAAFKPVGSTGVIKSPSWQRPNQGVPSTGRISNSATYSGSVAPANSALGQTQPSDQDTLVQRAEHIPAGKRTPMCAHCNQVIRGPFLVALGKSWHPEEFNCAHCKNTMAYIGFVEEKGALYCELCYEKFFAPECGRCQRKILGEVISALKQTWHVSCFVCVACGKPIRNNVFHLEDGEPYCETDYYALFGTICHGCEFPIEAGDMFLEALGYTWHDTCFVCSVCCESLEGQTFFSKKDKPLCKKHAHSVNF
UniProt Q96HE7: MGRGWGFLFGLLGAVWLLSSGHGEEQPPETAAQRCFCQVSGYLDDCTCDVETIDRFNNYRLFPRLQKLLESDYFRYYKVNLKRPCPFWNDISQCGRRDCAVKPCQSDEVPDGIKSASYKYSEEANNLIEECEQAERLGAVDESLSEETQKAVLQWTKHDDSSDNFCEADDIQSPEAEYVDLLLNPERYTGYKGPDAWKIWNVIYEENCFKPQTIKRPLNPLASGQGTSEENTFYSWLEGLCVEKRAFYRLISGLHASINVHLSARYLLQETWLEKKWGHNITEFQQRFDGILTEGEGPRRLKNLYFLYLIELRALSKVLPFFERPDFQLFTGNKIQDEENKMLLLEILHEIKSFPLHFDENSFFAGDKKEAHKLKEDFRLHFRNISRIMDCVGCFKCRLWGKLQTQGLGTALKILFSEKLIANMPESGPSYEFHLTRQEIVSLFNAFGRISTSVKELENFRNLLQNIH
UniProt Q96A33: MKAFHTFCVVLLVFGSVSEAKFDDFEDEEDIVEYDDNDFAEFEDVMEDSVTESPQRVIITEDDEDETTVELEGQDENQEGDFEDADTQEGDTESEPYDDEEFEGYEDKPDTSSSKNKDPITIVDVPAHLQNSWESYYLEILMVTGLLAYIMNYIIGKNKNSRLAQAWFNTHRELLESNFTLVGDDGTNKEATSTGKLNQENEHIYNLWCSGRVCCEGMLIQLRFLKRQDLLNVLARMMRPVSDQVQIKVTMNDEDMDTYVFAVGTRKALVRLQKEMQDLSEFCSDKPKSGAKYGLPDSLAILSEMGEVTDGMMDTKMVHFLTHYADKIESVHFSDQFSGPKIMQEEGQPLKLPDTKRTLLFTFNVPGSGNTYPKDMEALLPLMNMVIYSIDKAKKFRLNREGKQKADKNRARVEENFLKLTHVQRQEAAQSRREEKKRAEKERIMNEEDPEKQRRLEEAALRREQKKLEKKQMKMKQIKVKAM
UniProt Q96PK6: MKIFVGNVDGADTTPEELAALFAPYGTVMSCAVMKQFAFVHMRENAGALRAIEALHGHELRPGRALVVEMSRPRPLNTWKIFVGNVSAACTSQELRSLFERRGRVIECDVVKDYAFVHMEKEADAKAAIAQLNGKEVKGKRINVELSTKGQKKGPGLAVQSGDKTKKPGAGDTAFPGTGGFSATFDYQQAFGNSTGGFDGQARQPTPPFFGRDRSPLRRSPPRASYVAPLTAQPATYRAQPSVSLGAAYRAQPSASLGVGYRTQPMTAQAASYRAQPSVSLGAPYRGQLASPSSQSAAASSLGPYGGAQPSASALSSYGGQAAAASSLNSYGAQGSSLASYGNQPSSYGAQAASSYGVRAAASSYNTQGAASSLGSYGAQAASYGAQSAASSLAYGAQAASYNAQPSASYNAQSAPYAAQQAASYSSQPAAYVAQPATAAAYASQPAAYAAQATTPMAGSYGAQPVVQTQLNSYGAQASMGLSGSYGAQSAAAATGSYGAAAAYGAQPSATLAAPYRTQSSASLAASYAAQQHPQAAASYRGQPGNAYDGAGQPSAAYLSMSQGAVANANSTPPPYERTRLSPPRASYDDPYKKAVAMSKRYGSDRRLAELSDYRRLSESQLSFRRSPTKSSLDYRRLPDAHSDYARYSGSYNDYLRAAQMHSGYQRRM
UniProt Q96BM9: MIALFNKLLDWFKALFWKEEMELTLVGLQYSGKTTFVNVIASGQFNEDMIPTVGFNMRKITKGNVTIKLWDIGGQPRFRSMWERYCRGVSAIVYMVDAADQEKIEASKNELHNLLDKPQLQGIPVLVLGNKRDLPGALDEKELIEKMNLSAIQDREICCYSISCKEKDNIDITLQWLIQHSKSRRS
UniProt Q96G25: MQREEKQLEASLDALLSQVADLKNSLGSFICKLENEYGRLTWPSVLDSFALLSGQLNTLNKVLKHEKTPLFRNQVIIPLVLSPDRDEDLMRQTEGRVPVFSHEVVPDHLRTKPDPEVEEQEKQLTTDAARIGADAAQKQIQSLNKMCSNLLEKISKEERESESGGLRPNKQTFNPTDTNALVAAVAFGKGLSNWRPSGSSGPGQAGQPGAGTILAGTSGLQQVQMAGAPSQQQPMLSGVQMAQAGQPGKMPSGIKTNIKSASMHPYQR
UniProt Q96CN7: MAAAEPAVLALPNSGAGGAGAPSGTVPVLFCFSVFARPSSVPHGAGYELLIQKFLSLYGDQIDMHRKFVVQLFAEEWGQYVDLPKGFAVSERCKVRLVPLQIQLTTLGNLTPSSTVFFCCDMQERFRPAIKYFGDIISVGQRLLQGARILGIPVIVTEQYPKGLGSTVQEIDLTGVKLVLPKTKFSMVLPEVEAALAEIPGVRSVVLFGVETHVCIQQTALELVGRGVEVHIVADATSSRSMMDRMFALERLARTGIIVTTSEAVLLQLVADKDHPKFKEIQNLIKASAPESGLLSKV
UniProt Q96FJ0: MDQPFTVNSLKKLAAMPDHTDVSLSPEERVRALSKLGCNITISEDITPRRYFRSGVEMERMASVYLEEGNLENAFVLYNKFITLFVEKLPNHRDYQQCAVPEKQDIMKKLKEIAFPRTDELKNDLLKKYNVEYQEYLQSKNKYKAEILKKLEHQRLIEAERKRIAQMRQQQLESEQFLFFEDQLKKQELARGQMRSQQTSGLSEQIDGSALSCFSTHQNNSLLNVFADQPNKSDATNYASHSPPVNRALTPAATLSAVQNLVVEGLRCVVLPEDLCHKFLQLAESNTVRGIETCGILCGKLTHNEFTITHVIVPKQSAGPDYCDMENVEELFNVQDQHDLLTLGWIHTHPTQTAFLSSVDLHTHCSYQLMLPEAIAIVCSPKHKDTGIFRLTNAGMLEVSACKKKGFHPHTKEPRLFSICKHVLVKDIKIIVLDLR
UniProt Q96EA4: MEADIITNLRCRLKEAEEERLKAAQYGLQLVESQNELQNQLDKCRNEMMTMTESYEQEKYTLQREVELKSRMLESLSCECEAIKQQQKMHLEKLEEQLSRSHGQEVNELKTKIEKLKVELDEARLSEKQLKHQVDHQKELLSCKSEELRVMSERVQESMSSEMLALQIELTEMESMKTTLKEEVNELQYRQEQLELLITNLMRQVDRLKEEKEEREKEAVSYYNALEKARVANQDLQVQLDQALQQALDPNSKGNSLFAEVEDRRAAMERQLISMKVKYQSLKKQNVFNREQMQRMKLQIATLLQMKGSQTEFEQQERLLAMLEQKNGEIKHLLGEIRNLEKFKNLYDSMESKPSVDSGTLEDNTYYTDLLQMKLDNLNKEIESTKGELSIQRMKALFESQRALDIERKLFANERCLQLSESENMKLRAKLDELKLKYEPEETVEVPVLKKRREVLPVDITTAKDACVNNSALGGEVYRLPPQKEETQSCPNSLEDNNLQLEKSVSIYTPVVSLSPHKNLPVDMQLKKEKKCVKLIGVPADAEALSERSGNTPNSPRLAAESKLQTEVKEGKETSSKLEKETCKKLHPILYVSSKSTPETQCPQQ

compound: Nc1ncnc2c1ncn2[C@@H]1O[C@H](COP(=O)(O)OP(=O)(O)NP(=O)(O)O)[C@@H](O)[C@H]1O [adenylyl imidodiphosphate]; test: NP40-soluble protein abundance relative to vehicle (solubility fold change) (ratio); higher = more soluble protein in presence of AMP-PNP; conditions: concentration: 0.1mM
How it was run: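 Jurkat crude lysate (Dounce-homogenised) was treated with eight concentrations from 0.1 to 10 mM for 10 min at room temperature, then 3 min at 37 °C. It was solubilised with 0.8% NP40 and benzonase (60 min, 4 °C) and ultracentrifuged, and the supernatant was TMT-labelled for LC-MS/MS. Intensities were vsn-normalised, and the value is the fold change against the NP40-processed vehicle per replicate, from three independent experiments.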

Row | Target | NP40-soluble protein abundance
1 | RBM17 (UniProt Q96I25) | 1.03 ± 0.041
2 | UniProt Q96ES7 | 0.966 ± 0.05
3 | UniProt Q96PU8 and related entries | 0.989 ± 0.067
4 | UniProt Q96PV6-2 | 0.974 ± 0.013
5 | ATAD5 (UniProt Q96QE3) | 1.014 ± 0.01
6 | THOC3 (UniProt Q96J01) | 1.06 ± 0.013
7 | PDLIM5 (UniProt Q96HC4) | 0.977 ± 0.015
8 | UniProt Q96HE7 | 1.01 ± 0.049
9 | DUS3L (UniProt Q96G46) | 0.9924 ± 0.0054
10 | CCDC47 (UniProt Q96A33) | 1.01 ± 0.017
11 | RBM14 (UniProt Q96PK6) | 1 ± 0.043
12 | UniProt Q96F46 and related entries | 0.987 ± 0.026
13 | UniProt Q96EH3 | 1 ± 0.039
14 | UniProt Q96EE3 and related entries | 1.04 ± 0.054
15 | L3MBTL2 (UniProt Q969R5) | 1 ± 0.02
16 | RAB24 (UniProt Q969Q5) | 1.01 ± 0.03
17 | OPTN (UniProt Q96CV9) | 0.978 ± 0.017
18 | UniProt Q96N16 and related entries | 1.03 ± 0.05
19 | ARL8A (UniProt Q96BM9) | 0.982 ± 0.039

Row | Target | NP40-soluble protein abundance
20 | CHCHD1 (UniProt Q96BP2) | 1.05 ± 0.044
21 | ITPKC (UniProt Q96DU7) | 0.969 ± 0.033
22 | UniProt Q96G25 and related entries | 1.01 ± 0.037
23 | ALKBH3 (UniProt Q96Q83) | 1 ± 0.016
24 | ISOC1 (UniProt Q96CN7) | 1.01 ± 0.024
25 | UniProt Q96FJ0 and related entries | 1.01 ± 0.026
26 | UniProt Q96GS4 | 0.9812 ± 0.0083
27 | UniProt Q96EA4 | 0.99 ± 0.021
28 | UniProt Q969X5 and related entries | 1.01 ± 0.071
29 | ZNF622 (UniProt Q969S3) | 0.982 ± 0.044
30 | MRPS24 (UniProt Q96EL2) | 1.08 ± 0.048
31 | UniProt Q96GN5 and related entries | 0.989 ± 0.032
32 | UniProt Q96DI7 and related entries | 1 ± 0.036
33 | DHTKD1 (UniProt Q96HY7) | 1.01 ± 0.024
34 | UniProt Q96LA8 and related entries | 0.98092 ± 0.00026
35 | UniProt Q92997 and related entries | 1.03 ± 0.016
36 | SYAP1 (UniProt Q96A49) | 0.957 ± 0.028
37 | MARS2 (UniProt Q96GW9) | 1.01 ± 0.026

same assay, conditions: concentration: 0.5mM

Row | Target | NP40-soluble protein abundance
38 | RBM17 (UniProt Q96I25) | 1.07 ± 0.028
39 | UniProt Q96ES7 | 0.978 ± 0.05
40 | UniProt Q96PU8 and related entries | 0.957 ± 0.062
41 | UniProt Q96PV6-2 | 0.981 ± 0.011
42 | ATAD5 (UniProt Q96QE3) | 1.008 ± 0.0076
43 | THOC3 (UniProt Q96J01) | 1.05 ± 0.072
44 | PDLIM5 (UniProt Q96HC4) | 1.008 ± 0.0021
45 | UniProt Q96HE7 | 1.05 ± 0.012
46 | DUS3L (UniProt Q96G46) | 1 ± 0.033
47 | CCDC47 (UniProt Q96A33) | 1.02 ± 0.017
48 | RBM14 (UniProt Q96PK6) | 1.03 ± 0.021
49 | UniProt Q96F46 and related entries | 0.99 ± 0.022
50 | UniProt Q96EH3 | 1.03 ± 0.028
51 | UniProt Q96EE3 and related entries | 1.01 ± 0.082
52 | L3MBTL2 (UniProt Q969R5) | 0.984 ± 0.045
53 | RAB24 (UniProt Q969Q5) | 1 ± 0.013
54 | OPTN (UniProt Q96CV9) | 0.997 ± 0.023
55 | UniProt Q96N16 and related entries | 1.04 ± 0.086
56 | ARL8A (UniProt Q96BM9) | 0.993 ± 0.022

Row | Target | NP40-soluble protein abundance
57 | CHCHD1 (UniProt Q96BP2) | 1.02 ± 0.062
58 | ITPKC (UniProt Q96DU7) | 0.963 ± 0.023
59 | UniProt Q96G25 and related entries | 0.993 ± 0.044
60 | ALKBH3 (UniProt Q96Q83) | 1.01 ± 0.03
61 | ISOC1 (UniProt Q96CN7) | 0.991 ± 0.054
62 | UniProt Q96FJ0 and related entries | 0.996 ± 0.031
63 | UniProt Q96GS4 | 1 ± 0.015
64 | UniProt Q96EA4 | 0.994 ± 0.027
65 | UniProt Q969X5 and related entries | 0.976 ± 0.12
66 | ZNF622 (UniProt Q969S3) | 1.01 ± 0.046
67 | MRPS24 (UniProt Q96EL2) | 1.04 ± 0.033
68 | UniProt Q96GN5 and related entries | 1 ± 0.031
69 | UniProt Q96DI7 and related entries | 1.01 ± 0.023
70 | DHTKD1 (UniProt Q96HY7) | 0.979 ± 0.071
71 | UniProt Q96LA8 and related entries | 0.973 ± 0.0098
72 | UniProt Q92997 and related entries | 1.01 ± 0.038
73 | SYAP1 (UniProt Q96A49) | 0.998 ± 0.048
74 | MARS2 (UniProt Q96GW9) | 1.01 ± 0.075
